Results are given in words; binding and its absence hold for the method and conditions named. Binding seen in cells or lysates may run through a third protein. Some entries that bind do so weakly or less than the wild type. Where a sequence is shown, tags or fusion partners need not be part of it.

Chains of the proteins cited; added tags and fusions are not shown.
UniProt P06730: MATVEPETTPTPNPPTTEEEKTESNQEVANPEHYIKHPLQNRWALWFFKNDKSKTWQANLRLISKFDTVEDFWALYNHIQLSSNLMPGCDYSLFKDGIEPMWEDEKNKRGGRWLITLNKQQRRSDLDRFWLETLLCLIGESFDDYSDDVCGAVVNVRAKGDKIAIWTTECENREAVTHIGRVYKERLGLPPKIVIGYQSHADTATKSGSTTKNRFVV

Here are results for 1 molecule from article PMC4466674.

The experiment concerns the target eukaryotic initiation factor 4E (eIF4E) (human (endogenous in Rh30)) (UniProt P06730). The experiment in a line: pull-down; 7-methyl GTP Sepharose 4B pull-down of eIF4E from lysates of serum-starved Rh30 cells infected with Ad-4EBP1-5A or Ad-GFP, with or without rapamycin (100 ng/ml, 2 h) and IGF-1 (10 ng/ml, 1 h); bound proteins detected by Western blot. (In general: Immunoblotting shows a protein as a band on a membrane.)

B1: HA-tagged constitutively hypophosphorylated 4E-BP1 (4EBP1-5A) (protein, UniProt Q62622 1-117)
chain: MSAGSSCSQTPSRAIPTRRVALGDGVQLPPGDYSTAPGGTLFSTAPGGTRIIYDRKFLMECRNAPVAKAPPKDLPTIPGVTAPTSDEPPMQASQSHLHSSPEDKRAGGEESQFEMDI
As for B1, the binding result was “binds”.
